Assay results from the supplement of paper PMC10849652.
Some of the results follow.

By UniProt entry, the sequences of proteins in these tests, tags left out. Where a name states a change or a piece, a line headed by the entry shows the natural chain unless it says otherwise.
UniProt Q9BY42: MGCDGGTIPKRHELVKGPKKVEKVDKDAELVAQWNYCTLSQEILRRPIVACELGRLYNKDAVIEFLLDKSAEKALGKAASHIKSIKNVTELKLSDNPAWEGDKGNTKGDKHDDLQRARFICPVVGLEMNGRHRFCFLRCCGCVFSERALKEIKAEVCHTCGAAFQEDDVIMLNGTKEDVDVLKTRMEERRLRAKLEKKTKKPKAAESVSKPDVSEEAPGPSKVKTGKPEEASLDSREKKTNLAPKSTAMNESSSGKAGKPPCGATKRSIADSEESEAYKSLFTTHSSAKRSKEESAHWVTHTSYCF
UniProt Q99584: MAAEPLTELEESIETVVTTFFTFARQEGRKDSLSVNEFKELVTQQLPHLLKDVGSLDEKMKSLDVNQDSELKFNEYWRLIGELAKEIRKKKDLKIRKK
UniProt P62070: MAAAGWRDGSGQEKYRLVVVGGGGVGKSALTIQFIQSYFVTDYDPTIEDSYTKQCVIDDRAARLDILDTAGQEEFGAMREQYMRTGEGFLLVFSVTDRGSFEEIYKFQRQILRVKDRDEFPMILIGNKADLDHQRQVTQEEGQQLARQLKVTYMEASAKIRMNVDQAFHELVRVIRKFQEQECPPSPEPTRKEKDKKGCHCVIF
UniProt P56182: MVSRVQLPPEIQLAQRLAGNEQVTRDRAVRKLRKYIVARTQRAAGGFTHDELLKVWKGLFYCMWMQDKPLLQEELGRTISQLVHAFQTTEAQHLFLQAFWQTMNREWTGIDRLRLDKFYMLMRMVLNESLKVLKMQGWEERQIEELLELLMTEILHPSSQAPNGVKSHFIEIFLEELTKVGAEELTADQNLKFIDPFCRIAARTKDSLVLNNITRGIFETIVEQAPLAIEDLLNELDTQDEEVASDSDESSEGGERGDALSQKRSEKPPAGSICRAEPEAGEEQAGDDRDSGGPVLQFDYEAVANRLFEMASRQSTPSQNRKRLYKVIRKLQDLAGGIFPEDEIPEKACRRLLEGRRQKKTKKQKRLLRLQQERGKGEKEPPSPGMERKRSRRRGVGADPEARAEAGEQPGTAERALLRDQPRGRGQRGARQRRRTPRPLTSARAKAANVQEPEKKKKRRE
UniProt Q9NQC3: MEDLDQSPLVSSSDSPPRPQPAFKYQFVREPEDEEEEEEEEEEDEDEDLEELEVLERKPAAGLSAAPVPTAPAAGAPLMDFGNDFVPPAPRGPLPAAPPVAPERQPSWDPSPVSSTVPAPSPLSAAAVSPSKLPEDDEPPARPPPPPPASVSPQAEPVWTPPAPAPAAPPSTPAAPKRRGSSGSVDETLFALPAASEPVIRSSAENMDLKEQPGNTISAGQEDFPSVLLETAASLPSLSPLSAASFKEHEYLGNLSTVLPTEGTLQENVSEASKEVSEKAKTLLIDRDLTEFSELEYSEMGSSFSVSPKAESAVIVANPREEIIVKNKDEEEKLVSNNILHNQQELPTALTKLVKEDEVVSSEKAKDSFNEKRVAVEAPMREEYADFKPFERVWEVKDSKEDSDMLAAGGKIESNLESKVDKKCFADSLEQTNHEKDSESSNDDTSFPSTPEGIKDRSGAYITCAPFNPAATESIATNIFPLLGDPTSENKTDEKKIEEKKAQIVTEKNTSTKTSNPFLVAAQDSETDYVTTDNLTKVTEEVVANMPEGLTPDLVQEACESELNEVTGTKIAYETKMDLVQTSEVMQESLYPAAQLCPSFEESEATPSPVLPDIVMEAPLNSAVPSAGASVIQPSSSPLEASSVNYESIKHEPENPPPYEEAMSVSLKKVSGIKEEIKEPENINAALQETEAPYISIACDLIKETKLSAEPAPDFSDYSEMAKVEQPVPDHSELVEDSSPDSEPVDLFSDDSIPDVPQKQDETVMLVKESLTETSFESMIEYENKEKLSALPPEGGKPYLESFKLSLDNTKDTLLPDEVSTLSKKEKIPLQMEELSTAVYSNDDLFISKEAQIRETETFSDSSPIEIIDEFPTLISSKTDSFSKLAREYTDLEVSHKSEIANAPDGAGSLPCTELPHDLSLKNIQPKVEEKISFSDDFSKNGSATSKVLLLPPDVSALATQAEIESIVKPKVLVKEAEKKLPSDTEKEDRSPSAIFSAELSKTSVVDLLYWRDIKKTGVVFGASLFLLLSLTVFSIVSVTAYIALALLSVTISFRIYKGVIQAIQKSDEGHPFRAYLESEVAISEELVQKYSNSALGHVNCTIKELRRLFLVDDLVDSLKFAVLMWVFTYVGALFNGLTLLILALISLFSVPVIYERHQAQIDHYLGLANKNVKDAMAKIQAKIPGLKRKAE
UniProt P23921: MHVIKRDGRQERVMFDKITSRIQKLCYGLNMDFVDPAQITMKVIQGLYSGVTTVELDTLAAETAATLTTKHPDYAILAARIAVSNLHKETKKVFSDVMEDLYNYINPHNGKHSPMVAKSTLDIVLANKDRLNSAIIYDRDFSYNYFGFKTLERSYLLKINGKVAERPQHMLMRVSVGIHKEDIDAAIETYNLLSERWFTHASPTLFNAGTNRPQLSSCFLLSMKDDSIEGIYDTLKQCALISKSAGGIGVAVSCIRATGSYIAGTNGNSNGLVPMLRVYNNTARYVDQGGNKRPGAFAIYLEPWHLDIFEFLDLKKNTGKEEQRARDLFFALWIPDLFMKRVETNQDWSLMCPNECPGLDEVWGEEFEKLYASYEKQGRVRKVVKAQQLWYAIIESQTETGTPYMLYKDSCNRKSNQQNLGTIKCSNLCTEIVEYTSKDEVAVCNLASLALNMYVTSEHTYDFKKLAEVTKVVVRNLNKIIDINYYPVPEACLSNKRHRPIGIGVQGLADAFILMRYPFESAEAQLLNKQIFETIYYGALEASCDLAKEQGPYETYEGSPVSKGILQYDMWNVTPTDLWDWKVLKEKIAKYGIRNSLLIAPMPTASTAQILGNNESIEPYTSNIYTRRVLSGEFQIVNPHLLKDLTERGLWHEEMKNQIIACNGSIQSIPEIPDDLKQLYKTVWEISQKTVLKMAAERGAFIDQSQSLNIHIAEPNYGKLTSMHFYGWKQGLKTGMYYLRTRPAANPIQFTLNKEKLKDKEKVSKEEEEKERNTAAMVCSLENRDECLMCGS
UniProt P04844: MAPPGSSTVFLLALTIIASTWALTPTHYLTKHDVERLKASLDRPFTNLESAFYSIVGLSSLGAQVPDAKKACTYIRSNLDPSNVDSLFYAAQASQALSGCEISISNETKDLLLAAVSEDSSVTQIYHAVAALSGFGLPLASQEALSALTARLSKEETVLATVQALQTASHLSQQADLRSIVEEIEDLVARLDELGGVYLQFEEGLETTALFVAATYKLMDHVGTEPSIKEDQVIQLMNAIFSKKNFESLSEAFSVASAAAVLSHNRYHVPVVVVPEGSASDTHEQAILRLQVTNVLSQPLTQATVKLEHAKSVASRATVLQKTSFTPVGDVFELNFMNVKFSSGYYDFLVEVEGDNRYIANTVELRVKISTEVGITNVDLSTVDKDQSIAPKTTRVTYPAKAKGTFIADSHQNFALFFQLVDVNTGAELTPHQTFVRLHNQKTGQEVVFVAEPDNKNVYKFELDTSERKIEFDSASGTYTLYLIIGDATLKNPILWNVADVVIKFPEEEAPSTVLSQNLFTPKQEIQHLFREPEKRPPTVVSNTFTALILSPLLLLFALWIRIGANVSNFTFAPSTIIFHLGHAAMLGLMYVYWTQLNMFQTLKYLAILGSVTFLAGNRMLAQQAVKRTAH
UniProt Q9P2E9: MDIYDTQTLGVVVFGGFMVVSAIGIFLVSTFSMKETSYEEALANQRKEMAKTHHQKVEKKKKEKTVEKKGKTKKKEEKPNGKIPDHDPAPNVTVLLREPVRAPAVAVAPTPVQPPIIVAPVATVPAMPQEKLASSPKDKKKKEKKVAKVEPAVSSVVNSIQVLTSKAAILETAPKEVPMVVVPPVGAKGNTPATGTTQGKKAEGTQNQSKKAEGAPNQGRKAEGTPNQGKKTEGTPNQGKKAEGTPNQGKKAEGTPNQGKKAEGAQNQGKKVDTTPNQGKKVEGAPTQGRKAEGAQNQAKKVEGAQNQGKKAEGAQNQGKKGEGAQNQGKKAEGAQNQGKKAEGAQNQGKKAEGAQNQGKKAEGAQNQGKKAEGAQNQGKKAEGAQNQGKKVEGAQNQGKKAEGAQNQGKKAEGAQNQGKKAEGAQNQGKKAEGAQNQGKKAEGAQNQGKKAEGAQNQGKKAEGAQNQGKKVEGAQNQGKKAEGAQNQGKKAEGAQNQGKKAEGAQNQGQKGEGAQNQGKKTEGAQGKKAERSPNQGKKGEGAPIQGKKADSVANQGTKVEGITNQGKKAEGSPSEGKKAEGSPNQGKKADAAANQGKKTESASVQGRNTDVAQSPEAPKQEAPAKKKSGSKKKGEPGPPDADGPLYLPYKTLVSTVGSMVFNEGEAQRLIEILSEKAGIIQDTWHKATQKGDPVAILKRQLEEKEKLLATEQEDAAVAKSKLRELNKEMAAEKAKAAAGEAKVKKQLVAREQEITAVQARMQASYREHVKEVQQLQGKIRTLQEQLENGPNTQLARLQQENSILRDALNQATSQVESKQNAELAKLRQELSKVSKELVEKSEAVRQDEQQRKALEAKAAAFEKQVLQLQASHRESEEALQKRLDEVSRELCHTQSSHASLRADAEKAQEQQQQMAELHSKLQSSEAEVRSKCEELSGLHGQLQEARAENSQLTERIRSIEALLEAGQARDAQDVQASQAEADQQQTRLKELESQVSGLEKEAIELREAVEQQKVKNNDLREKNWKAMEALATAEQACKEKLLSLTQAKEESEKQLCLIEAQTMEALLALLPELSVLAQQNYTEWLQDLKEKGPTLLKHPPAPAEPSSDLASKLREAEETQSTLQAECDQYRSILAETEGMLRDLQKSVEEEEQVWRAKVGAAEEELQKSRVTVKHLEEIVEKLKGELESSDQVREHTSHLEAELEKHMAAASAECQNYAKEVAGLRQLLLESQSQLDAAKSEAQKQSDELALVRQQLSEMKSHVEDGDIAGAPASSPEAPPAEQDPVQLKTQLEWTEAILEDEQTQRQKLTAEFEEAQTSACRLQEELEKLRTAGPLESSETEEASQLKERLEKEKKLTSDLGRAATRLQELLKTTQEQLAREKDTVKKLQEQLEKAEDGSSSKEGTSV
UniProt Q01196, whole entry, looked up: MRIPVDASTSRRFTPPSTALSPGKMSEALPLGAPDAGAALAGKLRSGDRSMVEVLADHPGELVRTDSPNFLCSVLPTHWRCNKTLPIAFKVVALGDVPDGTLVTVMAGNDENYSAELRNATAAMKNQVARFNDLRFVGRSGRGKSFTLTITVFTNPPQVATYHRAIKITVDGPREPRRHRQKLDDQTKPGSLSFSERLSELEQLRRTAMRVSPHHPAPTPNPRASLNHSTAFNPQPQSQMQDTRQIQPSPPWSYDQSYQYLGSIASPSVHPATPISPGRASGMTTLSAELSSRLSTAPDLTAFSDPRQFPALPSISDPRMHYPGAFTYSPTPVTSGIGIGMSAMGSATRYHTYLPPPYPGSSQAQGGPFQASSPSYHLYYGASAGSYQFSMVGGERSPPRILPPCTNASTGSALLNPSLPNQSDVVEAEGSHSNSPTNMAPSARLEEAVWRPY
UniProt Q7L4I2: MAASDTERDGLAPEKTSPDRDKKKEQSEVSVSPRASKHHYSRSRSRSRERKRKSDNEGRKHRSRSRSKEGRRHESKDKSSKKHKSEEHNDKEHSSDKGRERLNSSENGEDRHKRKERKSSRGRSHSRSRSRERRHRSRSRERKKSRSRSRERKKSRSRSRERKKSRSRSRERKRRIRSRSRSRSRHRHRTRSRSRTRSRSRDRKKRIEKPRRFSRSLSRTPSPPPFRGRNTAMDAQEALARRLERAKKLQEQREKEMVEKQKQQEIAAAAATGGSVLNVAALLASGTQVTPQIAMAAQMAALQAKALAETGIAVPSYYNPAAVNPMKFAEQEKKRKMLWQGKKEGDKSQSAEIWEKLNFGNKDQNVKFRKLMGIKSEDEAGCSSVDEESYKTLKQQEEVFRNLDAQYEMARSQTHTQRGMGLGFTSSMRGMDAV
UniProt O43159: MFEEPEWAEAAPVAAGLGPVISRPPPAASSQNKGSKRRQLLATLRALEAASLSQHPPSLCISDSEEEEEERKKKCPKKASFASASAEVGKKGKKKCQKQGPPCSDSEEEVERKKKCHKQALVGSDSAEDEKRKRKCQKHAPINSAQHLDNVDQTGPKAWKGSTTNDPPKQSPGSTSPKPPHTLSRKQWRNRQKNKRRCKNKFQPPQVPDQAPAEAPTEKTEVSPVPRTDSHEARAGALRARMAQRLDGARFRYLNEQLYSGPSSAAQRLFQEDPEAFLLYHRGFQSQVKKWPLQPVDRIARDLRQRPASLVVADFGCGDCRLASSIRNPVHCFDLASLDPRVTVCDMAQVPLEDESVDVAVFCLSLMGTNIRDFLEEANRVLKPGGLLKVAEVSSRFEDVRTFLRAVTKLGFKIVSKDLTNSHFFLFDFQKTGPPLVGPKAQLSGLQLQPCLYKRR

Experiments:
Assay in all cases: log2 fold change, soluble protein after heating vs DMSO (PISA); higher = thermal stabilisation; K562 lysate, 10 uM; active = over 0.2 and 3.5 SD of the protein, either way, in both replicates (recomputed)
[1] = compound: C=CC(=O)N1CCC[C@@H](n2nc(-c3ccc(Oc4ccccc4)cc3)c3c(N)ncnc32)C1 [ibrutinib]
Procedure, shortened: (§1)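 Pellets of K562 cells were dounce-homogenised in PBS pH 7.4 with 1 mM MgCl2, and the crude extract was held at 1 mg/mL protein for a 30 min treatment with 10 μM compound. Aliquots were heated for 3 min over 48°C-58°C and pooled before NP-40 was added to 0.5% at 4°C. The supernatant from 21,000xg for 90 min was quantified by TMTpro 16plex LC-MS/MS with channel sums equalised. Values are reported from duplicates as log-two fold change in thermal stability relative to solvent controls.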

[2] = compound: CC(=O)c1cnc2ccc(-c3cc(Cl)c(O)c(Cl)c3)nc2c1N[C@H]1CC[C@H](CN(C)C)CC1
Procedure, shortened: as §1

[3] = compound: CC(C)(C)Cn1c(N)nc2ccc(-c3[nH]c(C(C)(C)C)nc3-c3ccc(F)cc3)nc21 [ralimetinib]
Procedure, shortened: as §1

[4] = compound: CC(C)(O)CC(=O)NCCn1ccc2ncnc(Nc3ccc(Oc4cccc(C(F)(F)F)c4)c(Cl)c3)c21
Procedure, shortened: as §1

[5] = compound: CC(C)C1=C2N=C(C=C(N2N=C1)NCC3=CC=CC=C3)NCCCCCCN
Procedure, shortened: as §1

[6] = compound: CC1=C(C(CC(=O)N1)C2=CC=C(C=C2)C(F)(F)F)C(=O)NC3=C(C=C4C(=C3)C=NN4)F
Procedure, shortened: as §1

[7] = compound: CC1=C(C2=C(C=C1)C(=O)C3=CC=CC=C3N2CCCN)C
Procedure, shortened: as §1

[8] = compound: CC1=C(C=C(C=C1)NC(=O)C2=CC(=CC=C2)C(C)(C)C#N)NC3=CC4=C(C=C3)N=CN(C4=O)C
Procedure, shortened: as §1

[9] = compound: CC1=C(C=C(C=C1)NC(=O)C2=CC(=CC=C2)N(C)C)NC(=O)C3=CC=C(C=C3)O
Procedure, shortened: as §1

[10] = compound: CC1=CC=C(C=C1)SC2=C3C=C(SC3=CN=C2)C(=O)N
Procedure, shortened: as §1

Measured: log2 fold change

RPS6KC1 (UniProt Q96S38)
inactive: [1] 0.015 | [2] 0.046 | [3] 0.008 | [4] -0.019 | [5] -0.006 | [6] -0.047 | [7] -0.029 | [8] 0.007 | [9] 0.049 | [10] -0.001

RSL1D1 (UniProt O76021)
inactive: [1] -0.027 | [2] -0.005 | [3] -0.006 | [4] -0.007 | [5] 0 | [6] -0.004 | [7] -0.005 | [8] -0.019 | [9] 0.017 | [10] 0.032

RPL7 (UniProt P18124)
inactive: [1] -0.021 | [2] -0.01 | [3] -0.023 | [4] -0.007 | [5] 0.011 | [6] -0.01 | [7] -0.037 | [8] 0.003 | [9] -0.018 | [10] 0.03

RTF2 (UniProt Q9BY42)
inactive: [1] 0.074 | [2] 0.004 | [3] 0.003 | [4] 0.017 | [5] -0.023 | [6] 0.014 | [7] -0.024 | [8] 0.052 | [9] -0.005 | [10] -0.062

RPS5 (UniProt P46782)
inactive: [1] 0.012 | [2] 0 | [3] -0.017 | [4] -0.013 | [5] 0.017 | [6] -0.006 | [7] -0.015 | [8] -0.038 | [9] -0.012 | [10] 0.036

RPS3A (UniProt P61247)
inactive: [1] -0.011 | [2] 0.02 | [3] 0.009 | [4] 0.032 | [5] -0.024 | [6] -0.005 | [7] -0.049 | [8] -0.052 | [9] 0.012 | [10] 0.055

S100A13 (UniProt Q99584)
inactive: [1] 0.04 | [2] 0.026 | [3] -0.005 | [4] 0.014 | [5] 0.034 | [6] -0.025 | [7] 0.015 | [8] -0.042 | [9] -0.015 | [10] -0.01

RPS2 (UniProt P15880)
inactive: [1] -0.002 | [2] -0.014 | [3] -0.001 | [4] -0.018 | [5] 0.01 | [6] -0.025 | [7] -0.059 | [8] 0.003 | [9] 0.003 | [10] 0.033

RRAS2 (UniProt P62070)
inactive: [1] 0.044 | [2] -0.05 | [3] 0.011 | [4] -0.024 | [5] 0.016 | [6] 0.049 | [7] 0.065 | [8] -0.012 | [9] 0.056 | [10] -0.051

RRP1 (UniProt P56182)
inactive: [1] -0.067 | [2] 0.048 | [3] 0.056 | [4] -0.038 | [5] -0.044 | [6] -0.013 | [7] 0.001 | [8] -0.075 | [9] 0.103 | [10] 0.022

RREB1 isoform 2 (UniProt Q92766)
inactive: [1] 0.056 | [2] 0.13 | [3] 0.01 | [4] -0.061 | [5] -0.078 | [6] -0.003 | [7] 0.031 | [8] 0.073 | [9] 0.042 | [10] 0.103

RPL7L1 (UniProt Q6DKI1)
inactive: [1] 0.03 | [2] 0.012 | [3] 0.004 | [4] 0.009 | [5] 0.041 | [6] -0.034 | [7] -0.048 | [8] 0.008 | [9] 0.024 | [10] 0.015

RTN4 (UniProt Q9NQC3)
inactive: [1] 0.029 | [2] 0.013 | [3] 0.06 | [4] -0.017 | [5] -0.022 | [6] 0.007 | [7] -0.013 | [8] 0.022 | [9] -0.018 | [10] -0.01

RPL37 (UniProt P61927)
inactive: [1] 0.026 | [2] -0.043 | [3] -0.07 | [4] 0.044 | [5] -0.129 | [6] -0.04 | [7] -0.006 | [8] -0.101 | [9] 0.018 | [10] -0.061

RPLP0P6 (UniProt Q8NHW5)
inactive: [1] 0.064 | [2] -0.005 | [3] -0.01 | [4] -0.02 | [5] -0.009 | [6] -0.052 | [7] -0.028 | [8] 0.015 | [9] 0.01 | [10] -0.017

RRM1 (UniProt P23921)
inactive: [1] 0.025 | [2] 0 | [3] 0.005 | [4] -0.01 | [5] 0.022 | [6] 0 | [7] -0.033 | [8] -0.009 | [9] 0.024 | [10] 0.016

RPS18 (UniProt P62269)
inactive: [1] -0.016 | [2] 0.01 | [3] -0.006 | [4] -0.02 | [5] 0.008 | [6] -0.037 | [7] -0.1 | [8] 0 | [9] -0.006 | [10] -0.012

RPN2 (UniProt P04844)
inactive: [1] -0.008 | [2] 0.014 | [3] -0.004 | [4] -0.035 | [5] -0.021 | [6] 0.008 | [7] 0.021 | [8] -0.011 | [9] -0.015 | [10] -0.017

RPL4 (UniProt P36578)
inactive: [1] -0.015 | [2] 0.014 | [3] -0.019 | [4] 0.007 | [5] -0.008 | [6] -0.023 | [7] 0.001 | [8] -0.03 | [9] 0.002 | [10] 0.033

RPS26P11 (UniProt Q5JNZ5)
inactive: [1] -0.037 | [2] 0.004 | [3] 0.008 | [4] -0.034 | [5] -0.019 | [6] -0.013 | [7] -0.034 | [8] 0.024 | [9] 0.025 | [10] 0.016

RPS25 (UniProt P62851)
inactive: [1] -0.021 | [2] 0.023 | [3] -0.033 | [4] -0.011 | [5] 0.009 | [6] -0.032 | [7] -0.038 | [8] 0.003 | [9] -0.032 | [10] 0.065

RTN4 isoform 5 (UniProt Q9NQC3)
inactive: [1] -0.062 | [2] 0.06 | [3] 0.059 | [4] -0.054 | [5] -0.033 | [6] 0.083 | [7] -0.019 | [8] -0.001 | [9] 0.025 | [10] -0.018

RRBP1 (UniProt Q9P2E9)
inactive: [1] 0.007 | [2] -0.02 | [3] -0.01 | [4] -0.024 | [5] -0.021 | [6] 0.015 | [7] -0.016 | [8] -0.018 | [9] -0.008 | [10] 0

RPS8 (UniProt P62241)
inactive: [1] -0.023 | [2] 0.002 | [3] -0.032 | [4] -0.003 | [5] 0.017 | [6] -0.008 | [7] -0.064 | [8] -0.014 | [9] -0.004 | [10] 0.05

RUNX1 isoform 8 (UniProt Q01196)
inactive: [1] -0.082 | [2] 0.035 | [3] -0.025 | [4] 0.021 | [5] 0.011 | [6] 0.064 | [7] 0.038 | [8] -0.198 | [9] -0.043 | [10] -0.022

Taken from the results shown (2 entries):
RPS25 (UniProt P62851)
inactive: [1] -0.021 | [2] 0.023 | [3] -0.033 | [4] -0.011 | [5] 0.009 | [6] -0.032 | [7] -0.038 | [8] 0.003 | [9] -0.032 | [10] 0.065

RTN4 isoform 5 (UniProt Q9NQC3)
inactive: [1] -0.062 | [2] 0.06 | [3] 0.059 | [4] -0.054 | [5] -0.033 | [6] 0.083 | [7] -0.019 | [8] -0.001 | [9] 0.025 | [10] -0.018

Further results

RSRC2 (UniProt Q7L4I2)
inactive: [1] -0.025 | [2] -0.016 | [3] -0.004 | [4] -0.003 | [5] -0.046 | [6] -0.009 | [7] 0.039 | [8] -0.028 | [9] -0.002 | [10] -0.028

RRP8 (UniProt O43159)
inactive: [1] -0.003 | [2] 0.01 | [3] 0.024 | [4] -0.011 | [5] 0.066 | [6] -0.079 | [7] 0.019 | [8] 0.071 | [9] 0.03 | [10] 0.051
